Only a part is listed here, and it is no random draw. At the low end of the ranking the order means little.

Amino acid sequences for entries named in this document (tags omitted). A change or cut given only in a name is not applied to a line headed by its entry.
UniProt Q01892: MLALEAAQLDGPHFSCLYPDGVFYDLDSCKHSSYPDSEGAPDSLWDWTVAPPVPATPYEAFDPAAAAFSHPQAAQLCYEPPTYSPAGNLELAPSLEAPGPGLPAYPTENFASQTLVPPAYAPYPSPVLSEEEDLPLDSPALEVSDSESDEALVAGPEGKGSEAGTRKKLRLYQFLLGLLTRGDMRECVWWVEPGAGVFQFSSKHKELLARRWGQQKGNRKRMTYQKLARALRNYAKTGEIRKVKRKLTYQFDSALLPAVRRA
UniProt P41161: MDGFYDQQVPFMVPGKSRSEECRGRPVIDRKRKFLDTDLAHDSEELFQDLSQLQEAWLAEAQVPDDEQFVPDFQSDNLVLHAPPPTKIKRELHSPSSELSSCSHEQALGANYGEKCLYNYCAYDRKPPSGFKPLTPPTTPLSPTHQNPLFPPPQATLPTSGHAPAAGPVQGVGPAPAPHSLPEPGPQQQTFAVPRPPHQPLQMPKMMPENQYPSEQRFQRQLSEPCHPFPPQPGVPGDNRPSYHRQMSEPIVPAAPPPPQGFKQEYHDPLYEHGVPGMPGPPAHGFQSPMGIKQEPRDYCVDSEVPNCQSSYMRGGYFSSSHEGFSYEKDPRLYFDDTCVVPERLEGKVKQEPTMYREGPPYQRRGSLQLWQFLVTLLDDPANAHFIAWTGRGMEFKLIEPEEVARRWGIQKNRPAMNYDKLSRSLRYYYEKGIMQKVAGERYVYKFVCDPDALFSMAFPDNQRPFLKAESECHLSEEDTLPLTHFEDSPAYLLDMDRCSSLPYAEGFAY
UniProt Q99607: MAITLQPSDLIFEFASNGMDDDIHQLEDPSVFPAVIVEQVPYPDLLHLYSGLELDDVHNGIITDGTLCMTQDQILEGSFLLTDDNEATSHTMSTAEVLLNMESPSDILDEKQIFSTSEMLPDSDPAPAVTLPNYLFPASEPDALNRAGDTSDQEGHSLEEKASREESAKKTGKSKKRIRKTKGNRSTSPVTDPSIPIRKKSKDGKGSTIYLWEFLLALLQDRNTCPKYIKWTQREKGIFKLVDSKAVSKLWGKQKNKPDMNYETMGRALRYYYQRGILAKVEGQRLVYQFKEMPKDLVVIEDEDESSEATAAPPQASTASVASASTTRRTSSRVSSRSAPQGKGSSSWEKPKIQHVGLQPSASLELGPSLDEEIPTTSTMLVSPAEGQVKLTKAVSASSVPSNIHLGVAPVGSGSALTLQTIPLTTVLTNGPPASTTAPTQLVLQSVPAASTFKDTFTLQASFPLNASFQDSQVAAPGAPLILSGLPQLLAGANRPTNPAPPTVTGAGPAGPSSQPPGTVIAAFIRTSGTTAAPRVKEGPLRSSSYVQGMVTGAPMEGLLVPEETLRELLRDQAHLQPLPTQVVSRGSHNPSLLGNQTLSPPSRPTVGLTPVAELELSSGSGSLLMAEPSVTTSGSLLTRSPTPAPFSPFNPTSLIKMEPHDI

Holding throughout (test): DAPPL (digital affinity profiling via proximity ligation, sequencing)
What all share (conditions): 10 mM Tris-HCl pH 7.5, 50 mM NaCl, 1 mM DTT, 4% glycerol, room temperature, 30 min; GST-TFs on glutathione beads, 16-mer random dsDNA library, 0.1% …; high values mean tight binding; double strand, one strand shown; scale: fold enrichment (6-mer frequency, TF over GST control)

For assay [1], the target named is T1, FLI1 (UniProt Q01543).
T1 sequence: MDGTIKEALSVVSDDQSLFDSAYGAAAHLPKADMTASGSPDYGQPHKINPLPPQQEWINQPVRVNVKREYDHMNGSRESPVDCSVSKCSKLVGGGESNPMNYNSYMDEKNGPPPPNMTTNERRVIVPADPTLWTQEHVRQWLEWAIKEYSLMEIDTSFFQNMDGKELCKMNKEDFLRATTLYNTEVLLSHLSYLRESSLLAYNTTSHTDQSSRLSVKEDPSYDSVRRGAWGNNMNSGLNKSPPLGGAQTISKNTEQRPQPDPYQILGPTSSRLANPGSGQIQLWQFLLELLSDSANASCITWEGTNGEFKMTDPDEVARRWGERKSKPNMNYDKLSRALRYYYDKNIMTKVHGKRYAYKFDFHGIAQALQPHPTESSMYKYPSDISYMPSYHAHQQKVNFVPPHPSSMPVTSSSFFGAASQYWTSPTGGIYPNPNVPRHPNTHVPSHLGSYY

For assay [2], the target named is T2, EHF (UniProt Q9NZC4).
T2 sequence: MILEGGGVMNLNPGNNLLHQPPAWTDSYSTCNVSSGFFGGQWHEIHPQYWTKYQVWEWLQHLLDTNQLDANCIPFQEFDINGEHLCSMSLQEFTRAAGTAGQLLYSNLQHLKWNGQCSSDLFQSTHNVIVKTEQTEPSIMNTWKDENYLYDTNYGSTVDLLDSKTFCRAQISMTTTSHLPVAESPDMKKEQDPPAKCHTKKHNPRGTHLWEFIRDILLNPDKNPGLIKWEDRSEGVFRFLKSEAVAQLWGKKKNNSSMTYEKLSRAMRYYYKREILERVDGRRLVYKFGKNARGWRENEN

The target in assay [3] is SPIB (UniProt Q01892).
The target in assay [4] is ETV5 (UniProt P41161).
The target in assay [5] is ELF4 (UniProt Q99607).
Assay [6] deals with T3, ETV2 (UniProt O00321).
T3 sequence: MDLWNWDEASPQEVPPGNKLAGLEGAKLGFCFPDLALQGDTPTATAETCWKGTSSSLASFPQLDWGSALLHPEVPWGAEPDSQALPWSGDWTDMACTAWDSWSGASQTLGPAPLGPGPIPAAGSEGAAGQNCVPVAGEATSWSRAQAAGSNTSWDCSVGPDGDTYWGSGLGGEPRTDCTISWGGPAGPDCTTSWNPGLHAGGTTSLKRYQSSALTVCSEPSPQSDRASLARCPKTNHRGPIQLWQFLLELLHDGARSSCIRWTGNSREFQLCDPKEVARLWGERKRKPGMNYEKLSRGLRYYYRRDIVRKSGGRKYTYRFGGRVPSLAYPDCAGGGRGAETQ

In assay [7] the target is T4, ETV3L (UniProt Q6ZN32).
T4 sequence: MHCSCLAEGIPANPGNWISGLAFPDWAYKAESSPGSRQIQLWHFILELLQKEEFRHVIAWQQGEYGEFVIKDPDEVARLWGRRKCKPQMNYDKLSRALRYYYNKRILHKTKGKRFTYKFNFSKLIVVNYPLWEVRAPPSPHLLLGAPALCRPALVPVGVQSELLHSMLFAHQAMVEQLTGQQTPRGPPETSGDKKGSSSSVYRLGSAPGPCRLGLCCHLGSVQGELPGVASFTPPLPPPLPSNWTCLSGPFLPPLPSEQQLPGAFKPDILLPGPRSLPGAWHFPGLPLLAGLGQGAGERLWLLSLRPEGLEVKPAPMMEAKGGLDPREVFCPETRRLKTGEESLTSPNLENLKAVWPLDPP

Turning to ATCCAG, the binding signal came to 0.853 in assay [1]; 0.873 in assay [2]; 0.853 in assay [3]; 0.819 in assay [4]; 0.883 in assay [5]; 0.902 in assay [6]. In assay [7], this sequence gave a binding signal of 0.848.
For TCGGAG, the binding signal came out at 0.214 in assay [1]; 0.193 in assay [2]; 0.185 in assay [3]; 0.207 in assay [4]; 0.179 in assay [5]; 0.174 in assay [6]. Moreover, in assay [7], the binding signal is 0.214.
On to GCAGGA, for which the binding signal was 0.775 in assay [1]; 0.84 in assay [2]; 0.876 in assay [3]; 0.872 in assay [4]; 0.762 in assay [5]; 0.857 in assay [6]. The sequence also came in with a binding signal in assay [7] of 0.854.
As for GACGAG, the binding signal in assay [1] was 0.506; in assay [2] it was 0.498; in assay [3], 0.58; in assay [4], 0.532; in assay [5] it was 0.502; in assay [6] it was 0.727. Moreover, the binding signal in assay [7] stood at 0.512.
Regarding GAGCGT, the binding signal in assay [1] amounted to 0.352; in assay [2] it was 0.301; in assay [3] it was 0.32; in assay [4] it was 0.334; in assay [5], 0.34; in assay [6] it was 0.289. This sequence also showed a binding signal in assay [7] of 0.351.
For the sequence TCAGGA, the binding signal in assay [1] worked out at 0.834; in assay [2], 0.808; in assay [3], 0.838; in assay [4], 0.853; in assay [5], 0.823; in assay [6], 0.808. The same sequence yielded a binding signal in assay [7] of 0.832.
With TCAGAA, the binding signal came out at 0.921 in assay [1]; 0.925 in assay [2]; 0.886 in assay [3]; 0.881 in assay [4]; 1 in assay [5]; 0.952 in assay [6]. This sequence also had a binding signal in assay [7] of 0.875.
Regarding AGGCAG, the binding signal in assay [1] was 0.531; in assay [2] it was 0.533; in assay [3] it was 0.556; in assay [4], 0.58; in assay [5] it was 0.531; in assay [6] it was 0.588. The sequence further showed a binding signal in assay [7] of 0.537.
With ACCGTG, the binding signal in assay [1] worked out at 0.213; in assay [2], 0.221; in assay [3] it was 0.239; in assay [4], 0.231; in assay [5] it was 0.227; in assay [6], 0.223. The sequence further gave a binding signal in assay [7] of 0.249.
Take GCTTGA: the binding signal in assay [1] was found to be 0.884; in assay [2] it was 0.894; in assay [3] it was 0.96; in assay [4] it was 0.969; in assay [5] it was 0.936; in assay [6], 0.888. Also, the binding signal in assay [7] is 0.823.
On to GGGTCC, for which the binding signal in assay [1] was determined as 0.78; in assay [2] it was 0.782; in assay [3], 0.825; in assay [4], 0.873; in assay [5] it was 0.829; in assay [6] it was 0.788. In assay [7], this sequence displayed a binding signal of 0.883.
Turning to GTCGTT, the binding signal in assay [1] was found to be 0.685; in assay [2], 0.738; in assay [3], 0.702; in assay [4], 0.695; in assay [5] it was 0.682; in assay [6], 0.772. In addition, in assay [7], the binding signal worked out at 0.747.
In the case of TGGAGT, the binding signal is 0.48 in assay [1]; 0.571 in assay [2]; 0.535 in assay [3]; 0.543 in assay [4]; 0.517 in assay [5]; 0.437 in assay [6]. In assay [7], this sequence gave a binding signal of 0.581.
TCGTGG: the binding signal was 0.67 in assay [1]; 0.734 in assay [2]; 0.659 in assay [3]; 0.672 in assay [4]; 0.712 in assay [5]; 0.723 in assay [6]. The binding signal in assay [7] came to 0.711.
For the sequence GTAGAC, the binding signal in assay [1] worked out at 0.799; in assay [2] it was 0.741; in assay [3], 0.779; in assay [4], 0.767; in assay [5] it was 0.76; in assay [6], 0.781. The sequence further came in with a binding signal in assay [7] of 0.783.
As for GTCAAC, the binding signal was found to be 0.968 in assay [1]; 0.889 in assay [2]; 0.911 in assay [3]; 0.912 in assay [4]; 0.934 in assay [5]; 0.933 in assay [6]. In assay [7], the binding signal turned out to be 0.942.
Consider AGAGGA, for which the binding signal in assay [1] came out at 0.601; in assay [2] it was 0.688; in assay [3], 0.635; in assay [4], 0.655; in assay [5] it was 0.62; in assay [6] it was 0.655. Besides, in assay [7], the binding signal was 0.633.
As to GGGTCG, the binding signal in assay [1] is 0.582; in assay [2], 0.562; in assay [3], 0.57; in assay [4], 0.618; in assay [5], 0.58; in assay [6], 0.577. Also, the binding signal in assay [7] amounted to 0.585.
Regarding CAGGCT, the binding signal in assay [1] was determined as 0.822; in assay [2] it was 0.799; in assay [3], 0.834; in assay [4], 0.833; in assay [5] it was 0.81; in assay [6] it was 0.781. In assay [7], the binding signal was 0.8.
With CAAGAC, the binding signal in assay [1] was found to be 0.839; in assay [2], 0.861; in assay [3], 0.813; in assay [4], 0.865; in assay [5], 0.892; in assay [6], 0.899. In assay [7], this sequence returned a binding signal of 0.864.
As to GTTAGT, the binding signal in assay [1] is 0.856; in assay [2], 0.769; in assay [3] it was 0.78; in assay [4], 0.768; in assay [5], 0.77; in assay [6] it was 0.848. For the same sequence, the binding signal in assay [7] amounted to 0.765.
For AAGGTG, the binding signal in assay [1] was 0.95; in assay [2] it was 0.907; in assay [3], 0.899; in assay [4], 0.898; in assay [5], 0.905; in assay [6], 0.837. Moreover, the binding signal in assay [7] was determined as 0.888.
In the case of ATCGTG, the binding signal in assay [1] was found to be 0.412; in assay [2], 0.397; in assay [3], 0.424; in assay [4], 0.379; in assay [5] it was 0.397; in assay [6] it was 0.443. The sequence also returned a binding signal in assay [7] of 0.452.
On to GCGTAG, for which the binding signal in assay [1] was 0.908; in assay [2] it was 0.805; in assay [3] it was 0.783; in assay [4], 0.792; in assay [5], 0.805; in assay [6], 0.943. The sequence further showed a binding signal in assay [7] of 0.832.
As to GAGATC, the binding signal was 0.446 in assay [1]; 0.467 in assay [2]; 0.445 in assay [3]; 0.491 in assay [4]; 0.457 in assay [5]; 0.516 in assay [6]. Also, the binding signal in assay [7] came to 0.424.
With GTGAGG, the binding signal worked out at 0.263 in assay [1]; 0.24 in assay [2]; 0.241 in assay [3]; 0.247 in assay [4]; 0.241 in assay [5]; 0.258 in assay [6]. This sequence also came in with a binding signal in assay [7] of 0.253.
In the case of CTGGAG, the binding signal in assay [1] was 0.711; in assay [2], 0.62; in assay [3], 0.684; in assay [4], 0.626; in assay [5] it was 0.619; in assay [6], 0.716. The binding signal in assay [7] amounted to 0.638.
For the sequence GAGAGA, the binding signal in assay [1] was determined as 0.466; in assay [2], 0.396; in assay [3] it was 0.392; in assay [4], 0.42; in assay [5], 0.435; in assay [6], 0.43. This sequence returned a binding signal in assay [7] of 0.397.
In the case of GAGGTA, the binding signal in assay [1] was determined as 0.669; in assay [2], 0.634; in assay [3], 0.692; in assay [4] it was 0.677; in assay [5], 0.661; in assay [6] it was 0.648. In addition, the binding signal in assay [7] came to 0.605.
GTCGAT: the binding signal was 0.739 in assay [1]; 0.668 in assay [2]; 0.746 in assay [3]; 0.708 in assay [4]; 0.772 in assay [5]; 0.699 in assay [6]. The binding signal in assay [7] came out at 0.654.
